{"source": "patent US20080267953A1", "about": "(Kyowa Kirin, published 2008)", "key": {"[1]": {"target": "polypeptide encoded by the human PERP gene, endogenously expressed on human cancer cell lines (PC9 / PC-9, Colo 205) (human) (UniProt Q96FX8)", "test": "flow cytometry on PC-9 cells"}, "[2]": {"target": "human PERP with C-terminal myc-His tag expressed on CHO/DG44 cells from plasmid pcPERPmH (human) (UniProt Q96FX8)", "test": "flow cytometry on CHO/PERP (KC1359)"}, "[3]": {"target": "human PERP with C-terminal myc-His tag expressed on CHO/DG44 cells from plasmid pcPERPmH (human) (UniProt Q96FX8)", "test": "flow cytometry on CHO/PERP"}}, "note": "These are yes or no findings as the source states them, for the method shown. Some results given as binding are weak or reduced against the parent protein; the word gives no strength."}
{"binder": "anti-PERP humanized antibody HV5-2LV4 (antibody, V domains shown) VH: QVQLQESGPGLVKPSQTLSLTCTVSGFSITTEYAWNWIRQPPGKGLEWMGYIGYTGRTNYAPSLKSRITISRDTSKNQFSLQLSSVTAEDTATYYCTRMDYWGQGTLVTVSS VL: DIQMTQSPSSLSASVGDRVTITCSASSSVSYMHWFQQKPGKAPKLWIYSTSNLASGVPSRFSGSGSGTDYTLTISSMQPEDFATYYCQQRSSYPPTFGQGTKVEIK", "values": [{"measurement": "binding", "setting": "[1]", "value": "binds"}, {"measurement": "binding", "setting": "[2]", "value": "binds"}]}
{"binder": "anti-PERP humanized antibody HV5-3LV4 (antibody, V domains shown) VH: QVQLQESGPGLVKPSQTLSLTCTVSGFSISTEYAWNWIRQFPGKGLEWMGYIGYTGRTNYAPSLKSRITISRDTSKNQFSLQLSSVTAEDTATYYCTRMDYWGQGTLVTVSS VL: DIQMTQSPSSLSASVGDRVTITCSASSSVSYMHWFQQKPGKAPKLWIYSTSNLASGVPSRFSGSGSGTDYTLTISSMQPEDFATYYCQQRSSYPPTFGQGTKVEIK", "values": [{"measurement": "binding", "setting": "[1]", "value": "binds"}, {"measurement": "binding", "setting": "[3]", "value": "binds"}, {"measurement": "binding", "setting": "[2]", "value": "binds"}]}
{"binder": "anti-PERP humanized antibody HV4LV5-2 (antibody, V domains shown) VH: QVQLQESGPGLVKPSQTLSLTCTVSGFSISTEYAWNWIRQFPGKGLEWIGYIGYTGRTNYAPSLKSRITISRDTSKNQFSLQLSSVTAEDTATYYCTRMDYWGQGTLVTVSS VL: DIQMTQSPSSLSASVGDRVTITCSASSSVSYMHWYQQKPGKSPKLWIYSTSNLASGVPSRFSGSGSGTSYSLTISSLQPEDFATYYCQQRSSYPPTFGQGTKVEIK", "values": [{"measurement": "binding", "setting": "[1]", "value": "binds"}, {"measurement": "binding", "setting": "[2]", "value": "binds"}]}
{"binder": "anti-PERP humanized antibody HV4LV2 (antibody, V domains shown) VH: QVQLQESGPGLVKPSQTLSLTCTVSGFSISTEYAWNWIRQFPGKGLEWIGYIGYTGRTNYAPSLKSRITISRDTSKNQFSLQLSSVTAEDTATYYCTRMDYWGQGTLVTVSS VL: DIQMTQSPSSLSASVGDRVTITCSASSSVSYMHWYQQKPGKAPKLWIYSTSNLASGVPSRFSGSGSGTDYTLTISSLQPEDFATYYCQQRSSYPPTFGQGTKVEIK", "values": [{"measurement": "binding", "setting": "[2]", "value": "binds"}]}
